According to publication PMC7000777:

Legend:
[1] = biological target: T1, inducible costimulator (ICOS), full-length, wild type (mouse) (UniProt Q9WVS0); assay: co-IP; anti-ICOS (C398.4A) and goat anti-hamster secondary added to intact Jurkat cells, on ice (unstimulated) or 37 °C for 1 min (ICOS crosslinking); RIPA lysis; Protein A/G agarose overnight at 4 °C; blotted for p85 and ICOS
T1 sequence: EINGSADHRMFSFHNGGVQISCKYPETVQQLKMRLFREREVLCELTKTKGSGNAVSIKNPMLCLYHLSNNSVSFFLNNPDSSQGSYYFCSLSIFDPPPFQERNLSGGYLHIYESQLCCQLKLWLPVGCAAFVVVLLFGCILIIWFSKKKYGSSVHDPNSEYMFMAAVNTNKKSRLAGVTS

[2] = biological target: T1, inducible costimulator (ICOS), full-length, wild type (mouse); assay: condition: only in Lck-deficient (LCK-knockout) Jurkat cells; co-IP; anti-ICOS immunoprecipitates of ICOS-transduced Lck-deficient (CRISPR LCK-knockout) Jurkat clones; blotted for p85 and ICOS

What does the source list for “regulatory subunit p85 of phosphoinositide-3 kinase (PI3K) (human (endogenous in Jurkat))”?
binding [1]: binds; binding [2]: no binding

These are yes or no findings as the source states them, for the method shown. Binding seen in cells or lysates may run through a third protein. For some assays here: Binding calls can cover weak binding; strength is not graded here.
